Read-outs that look alike come from different tables or passages of the source.

The nature of the series: Capture and release of target molecule by cross-linked polymer (HDI-linked cyclodextrin), slurry protocol. It is filed as physicochemical. Particulars: for capture in EtOH only: Example 8.
The mark [1] stands for this setting: Example 1, 1 mg/mL CBD in 1:1 ethanol:water, polymer:CBD 10:1.
[2] abbreviates: Example 2, 68 mg CBD, 1 mg/mL in 1:1 ethanol:water, polymer:CBD 10:1.
Where [3] appears, read: Example 4 as restated in Example 16, CBD and CBG together.
Setting [4] is: Example 16, 20 mg CBD + 20 mg CBG, 100 mg polymer, 1:1 ethanol:water.
The mark [5] stands for this setting: Example 21, ethanol extract of hops, 10:1.

Turning to `C=C(C)[C@@H]1CCC(C)=C[C@H]1c1c(O)cc(CCCCC)cc1O` [CBD, cannabidiol], the “selectivity between CBD and CBG” value is on record as “No significant selectivity”. For the same compound, under setting [1], the CBD captured was about 1.7 mg and the “percent of CBD captured” value is on record as “About 15%”. Under setting [2], the CBD captured stood at 11.6 mg and the “percent of CBD captured” value is reported as “about 17%”. Further, the “percent of CBD captured” value (Example 3, 1 mg/mL, polymer:CBD 50:1, after 10 minutes) is listed as 40 to 45%. Under “Example 3, 500 mg polymer, 50:1, after 10 minutes”, this compound gave a CBD captured of 4.0 to 4.5 mg. Further, the “capture at 50:1 relative to 10:1” value (Example 3, after 10 minutes) is recorded as 4 to 5 times. The percent recovered under setting [3] was 45%. In addition, the “fold increase 50:1 vs 10:1” value (Example 7, 2 mg/mL) is listed as 2.3 fold. Besides, the “capture in EtOH only” value (2 mg/mL, polymer:CBD 10:1) is on record as “no significant capture”. Also, the “capture in EtOH only” value (4 mg/mL, polymer:CBD 10:1) is “no significant capture”. The same compound had a percent capture (Example 10, water slowly added to 3:7 EtOH:H2O, 2 mg/mL) of 98%. Also, where the note is “Example 12, fresh cross-linked polymer, 2 mg/mL 1:1, 10:1”, the “percent of CBD captured” value is reported as 23%. Besides, the “percent of CBD captured” value (Example 12, reconstituted (recycled) cross-linked polymer) is 24%. Besides, the “percent of CBD captured” value (Example 12, second run of fresh cross-linked polymer) was determined as 25%. In addition, for the setting “Example 15, 100 mg polymer, 2 mg/mL, 5-20 mL”, the “plateau of mg captured” value worked out at 3.2 mg. The percent recovered under setting [4] came out at 17%. The compound further registered an amount recovered (Example 16, 100 mg polymer) of 3.4 mg. The percent capture entry (Example 18, 100 mg polymer, 3:7 ethanol:water, all CBD amounts) is “over 98%”. Also, the “release in ethanol extract of hops relative to pure ethanol” value (Example 20, first trial) was “about 52%”. Under “Example 20, polymer:CBD 10:1”, the “capture in ethanol extract of hops relative to pure ethanol” value was 56% to 74. Besides, the “release in ethanol extract of hops relative to pure ethanol” value (Example 20, second trial) is on record as “about 50%”. Also, under setting [5], the CBD captured was 9.6 mg and the CBD released stood at 5.5 mg. Under “Example 21, pure ethanol, 10:1”, the CBD captured entry is “about 9.8 mg” and the CBD released result is recorded as “about 9.8 mg”. Moreover, the “mass of collected CBD” value (Example 47, release by butane stream 10 min, 0.5 g polymer) was found to be 18.6 mg. Also, the “mass of collected CBD” value (Example 47, release by mixture of liquidized gases (hydrocarbons, carbon dioxide) 10 min, 0.5 g polymer) was found to be 36.3 mg. Also, the “mass of collected CBD” value (Example 48, heat-driven release, short-path distillation, 1.0 g polymer) came out at 39.4 mg.

Under “Example 4, 500 mg polymer”, `CCCCCc1cc(O)c(C/C=C(\C)CCC=C(C)C)c(O)c1` [CBG, cannabigerol] had an amount captured of 4.5 to 5.0 mg. The compound also showed a percent captured (Example 4, 500 mg polymer, 10 mg CBG) of 45 to 50%. Further, where the note is “Example 4, CBD and CBG in competition”, the “selectivity between CBD and CBG” value was “No significant selectivity”. Also, the percent recovered is, setting by setting: under setting [3], 54%; under setting [4], 24%. Further, the amount recovered (Example 16, 100 mg polymer) stood at 4.8 mg.

(Values after patent publication US20240150270A1, “METHOD FOR SELECTIVE RECOVERY OF LIPOPHILIC COMPOUNDS” (priority 2021, published 2024).)
